Results published in PubChem BioAssay AID1347423 (Functional Genomics Laboratory (NCATS/FGL), 2020).
Hit rate of the full screen: of about 52,000 sequences, about 210 (0.4%) were called active.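 The calls were made as follows: active = gene whose silencing raises cell survival under the drug, median off-target-corrected z-score across its silencing RNAs 2 or more; inactive = the rest.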 The list shows a part of the results.

assay: Resistance to Poly (ADP-Ribose) Polymerase inhibitor: Gene Identification via Genome-wide siRNA Screen; details: mouse BRCA2 R2336H ES cells, olaparib, CellTiter-Glo viability; stronger effect = higher value
Summary of the method: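 Mouse BRCA2 R2336H ES cells were reverse-transfected with siRNA (20 nM final), treated at 48 h with 500 nM olaparib, and read by CellTiter-Glo after 72 h. Scores: MAD-based z per siRNA, median per gene, seed off-target correction.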

| Sequence | z-score |
| --- | --- |
| GCCCUACCCUCAUCAUAAATT against 2310067B10Rik | inactive: 0.557 |
| AUGCACCAUGCCAUUGACCTT against Oxct2a | inactive: 1.51 |
| GGAGUCUGCUCUCAUUCUUTT against Slc30a1 | inactive: 0.953 |
| GGCCACAAACAGAAUUAUCTT against Mrpl2 | inactive: 0.421 |
| GGAUCCACACAUAUGAGGATT against Rdhs | inactive: 1.29 |
| GGCAGAACACAGUUCGAUCTT against Ckap1 | inactive: -0.843 |
| CGACUUUUCUCAUUAUGAGTT against Ythdf1 | inactive: 0.575 |
| GGCACUCCUAAUCCUUUCCTT against 9430077A04Rik | inactive: 0.967 |
| GGAAUUUGUACCAUGUAUCTT against MGI:2153084 | inactive: 1.43 |
| GGUGAUUGGCUGGAUCUACTT against Ctns | inactive: -2.07 |
| GGCUGAUGUAAUCUCUAAATT against Slc9a8 | inactive: -0.954 |
| GGUCUUCCAGAACAAUUACTT against Prtn3 | inactive: -0.437 |
| GGAGAUGAGGUGAAGUGGATT against BC048390 | inactive: -0.237 |
| GGACUGACACGGGUGUCUUTT against AI480653 | inactive: -0.582 |
| GGAUGACCUACGAGUGUUATT against Taf5 | inactive: -1.25 |
| GGCGAGGAGAACAUGCUGUTT against 3632410F03Rik | inactive: -0.0629 |
| GGCUUUAGGUAGUAGUCUCTT against 2310037I24Rik | inactive: 0.0847 |
| GGAUCUAUAGAAUAGCUCUTT against Rnpc2 | inactive: -0.218 |
| GGCCACCAAGAAAUUCAAATT against Cd22 | inactive: 0.766 |
| GGAACAAUACAUCGACACUTT against Grin2c | inactive: 0.303 |
| GGAGUUUGCAAAAAAUUCUTT against Olfr294 | inactive: 0.463 |
| CGAGCCCAUGUCAGAUCAGTT against AF529169 | inactive: -1.18 |

| Sequence | z-score |
| --- | --- |
| CGAAUGCUGUACUUCAAAATT against Fsip1 | inactive: 1.37 |
| GCAGAUUUGCACUGAAUCATT against Ndrg3 | inactive: 0.994 |
| GGCCAAUGCCCUUUUUUGATT against 4933402P03Rik | inactive: 0.995 |
| GGUAGAGGUGGAAUGUAGCTT against Qprt | inactive: -0.11 |
| GGACCUGGAGCUGAGAAGATT against 2310042P20Rik | inactive: -1.48 |
| GAAAGCGGAGAUACUGGAGTT against Hes7 | inactive: 0.873 |
| GGAGCUGAGCUCUCAGAAGTT against Ga17 | inactive: -2.72 |
| CCAAGCUUAGCAAGGAGUATT against Cyp2f2 | inactive: -0.178 |
| CCAAGAAUUACCACUUAUCTT against Phf11 | inactive: -0.949 |
| GGUCUUCAACGAAACCAACTT against Ly6g6c | inactive: 1.41 |
| CCUCUCUACAUCCACUACUTT against Pogz | inactive: -0.312 |
| GGGCCAAGAGCUUCUUUGATT against Ahr | inactive: -0.431 |
| CGAUCUACAUCUGCAUCAUTT against Olfr1212 | inactive: -0.961 |
| GCUCGAGAACAGUACCAUUTT against Hlcs | inactive: -0.152 |
| GGCAGCAUUGCAAUUUCUATT against AK122209 | inactive: -0.0613 |
| GGACCAGCUGGACAAAAGATT against Zfp238 | inactive: -2.9 |
| GGGUCUUUAUAAGUCUAUGTT against Kbtbd2 | inactive: -0.817 |
| GGCAGGAAUGACUCCUUUUTT against 2410001C21Rik | inactive: -0.605 |
| CCAUGGUCUAGCACAGUGGTT against Cpn2 | inactive: 0.172 |
| GUGUUCGAACAACAUUGUATT against Map3k7 | inactive: -0.0698 |
| GGAAUGGACAAAAUGAUUCTT against Cct4 | inactive: -0.0758 |
| GGAAAUCAGAACUGUAUCUTT against 2310022B05Rik | inactive: 0.686 |

| Sequence | z-score |
| --- | --- |
| GGAUCAAGAAUUAGAAAAGTT against Abcc9 | inactive: -0.216 |
| GAGUUCUCUCUCACAGCCCTT against Gp1bb | inactive: -1.01 |
| GCGUGAACGUAUUUGUUACTT against Pcdhgc3 | inactive: -0.183 |
| CCUACCAUAGCAACACUAUTT against Kcna2 | inactive: -1.18 |
| CGUAUGUGCCUUACAUGCUTT against C85492 | inactive: 1.52 |
| GCCCUUCGGGACUUUAUUGTT against Gusb | inactive: -0.873 |
| GGUAUUGGACAAUCAGAUATT against Cit | inactive: 1.76 |
| GCUAUGAAAGAGGGAAGCUTT against Cyp2c54 | inactive: 0.19 |
| GGGCAGGGAGAAAAAAAAATT against BC024561 | inactive: 0.896 |
| GGGUGAAAGACAGAGGACATT against BC006705 | inactive: -2.81 |
| GGGAUGACUUGUUCACAUCTT against Htf9c | inactive: -0.86 |
| GGAUAGCAUCCAUUACUUCTT against AI646023 | inactive: 0.922 |
| GGAAGAAGUACUCCAACUCTT against Eps8l2 | inactive: 0.195 |
| GGUGACUGGUAAAUGCCAGTT against Olfr1502 | inactive: 0.169 |
| GGAGAAUGGUUCAUAUCUGTT against 2310079F23Rik | inactive: 0.566 |
| GCUGAAAUCGAAAACCCGCTT against Atp6v0a1 | inactive: 0.401 |
| GGAAGAAACUGAGAAACUGTT against BC049635 | inactive: -0.323 |
| GGAAGAACGACAAGAACAUTT against Tgfbr2 | inactive: -0.571 |
| CGGGUCCUGUGAAGAACUATT against Sf4 | inactive: -1.52 |
| GGAGAGCAUCAUAUUUGGCTT against Gnb5 | inactive: 0.948 |
| CGUAUUUCACAAAUACGGATT against 4933406N12Rik | inactive: 0.547 |
| GGAAUGGGAUAGAUUUGUUTT against Ung | inactive: -2.49 |

Given with tabs: entries from further up.
Sequence	z-score
GCGUGAACGUAUUUGUUACTT against Pcdhgc3	inactive: -0.183
CCUACCAUAGCAACACUAUTT against Kcna2	inactive: -1.18
CGUAUGUGCCUUACAUGCUTT against C85492	inactive: 1.52
GCCCUUCGGGACUUUAUUGTT against Gusb	inactive: -0.873
